Primary screen of a compound library

Values are the deposited “Percent Effect”, in %.
The controls that fix the scale are not given in the record; negative values are as filed.
The compounds are a random part of those screened.
A dash means the value is not listed here; it may have been measured.

Mtb growth Cornell: 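Whole-cell assay for inhibitors of Mycobacterium tuberculosis growth, labelled Cornell in the record; the read-out is not stated. The concentration is filed as 10 mM, unlikely as a test dose, so the dose is not known. The record gives no direction; compounds strong in two other growth screens of this library score well above the rest, so higher reads as stronger inhibition. Size under these conditions: about 53,000 compounds, about 900 of them at 50% or above in at least one test.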
Mtb heat-shock: 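Assay on Mycobacterium tuberculosis, filed only as a heat shock assay from Cornell; the read-out is not stated. The concentration is filed as 10 mM, unlikely as a test dose, so the dose is not known. Higher reads as stronger inhibition (inferred: compounds with an IC50 in retests scored well above the rest). Size under these conditions: about 69,000 compounds, about 930 of them at 50% or above in at least one test.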

| # | Compound | Mtb growth Cornell | Mtb heat-shock |
|---|---|---|---|
| 1 | `Cc1ccc(CC(=O)N(C)CC2(O)CCCN(c3ccccn3)C2)s1` (stereo unspecified) | -10.54 | -11.1 |
| 2 | `CN1CCN(CCCN(C)S(=O)(=O)C2CCCCC2)CC1` | -8.92 | -6.907 |
| 3 | `CC(C)[C@H](CO)Nc1nccc(-c2c[nH]nc2-c2ccncc2)n1` | -6.056 | 9.87 |
| 4 | `CC(CN1CCOCC1)NC(=O)N(C)Cc1ccc(Cl)s1` (stereo unspecified) | 4.243 | -2.05 |
| 5 | `CN(Cc1cnn(C)c1)C(=O)c1cc(C(F)(F)F)n(C)n1` | 3.472 | 8.817 |
| 6 | `COCc1ncc(CN2CCC(Oc3ccccc3OC)CC2)cn1` | 5.391 | -12.35 |
| 7 | `Cc1cc(N2CCN(c3nc4ccccc4cc3CO)CC2)nc(C)n1` | 7.187 | 3.826 |
| 8 | `CC(=O)Nc1nc(C(=O)NC(C)c2ccc(C#N)cc2)cs1` (stereo unspecified) | 12.08 | 13.83 |
| 9 | `O=C(C1CC=CC1)N1CCC2(CCC(=O)N2Cc2cccc(F)c2)CC1` | -0.7024 | -11.68 |
| 10 | `Cn1ccnc1CNc1c(F)cccc1-n1cccn1` | -5.55 | 55.71 |
| 11 | `c1cnnc(N2CCCC2CNc2ncnc3sccc23)c1` (stereo unspecified) | 5.916 | 0.1196 |
| 12 | `O=C1CCCc2nccc(-c3ccccc3)c21` | - | -12.28 |
| 13 | `O=C(C1SCCc2sccc21)N1CCC(O)CC1` (stereo unspecified) | 21.45 | 5.467 |
| 14 | `CC(C)c1noc(CCC(=O)NC(C)c2nnc3n2CCC3)n1` (stereo unspecified) | - | -0.768 |
| 15 | `Cc1nc(C)c(C)c(N(C)CCCc2nccn2C)n1` | 12.19 | -0.01733 |
| 16 | `Cc1ncc(C(=O)N2CCC(N3C[C@@H](C)O[C@@H](C)C3)CC2)c(=O)[nH]1` | - | -12.02 |
| 17 | `CC(C)n1cnnc1Cn1c(=O)ccc2ccccc21` | - | -18.66 |
| 18 | `COc1cccc(CC(=O)N2CCCC(c3n[nH]c4nccnc34)C2)c1` (stereo unspecified) | 4.481 | -19.54 |
| 19 | `Nc1ccnc(N2CCC(Cc3ccccc3Cl)(C(=O)O)CC2)n1` | 9.791 | -29.9 |
| 20 | `O=C(NCc1nnc2n1CCC2)c1ccc(Br)s1` | 1.22 | 25.52 |
| 21 | `CCC1CN(C(=O)c2[nH]nc(C)c2Br)CCO1` (stereo unspecified) | 1.873 | 16.15 |
| 22 | `Fc1cccc2ncnc(NCC3(N4CCOCC4)CCSC3)c12` (stereo unspecified) | -11.21 | -14.5 |
| 23 | `Cc1cccc(C(=O)Nc2c(C(N)=O)n[nH]c2C)c1C` | -9.018 | 12.97 |
| 24 | `O=C(CCCc1cn[nH]c1)N1C[C@@H](CN2CCOCC2)[C@@H](CO)C1` | -21.16 | -3.976 |
| 25 | `[H][C@@]12CN(CC3CC3)C[C@]1([H])N(Cc1ccccc1OC)C(=O)O2` | 17.04 | -6.897 |
| 26 | `Cc1nc(CN2CCCN(C(=O)c3cnccn3)CC2)cs1` | - | 23.95 |
| 27 | `O=C(O)C(F)(F)F.c1ccc(N2CCC3(CCCN(c4ncccn4)C3)C2)nc1` (stereo unspecified) | 10.05 | -26.18 |
| 28 | `CN(C)CCN1CCN(Cc2cccc(C#N)c2)Cc2cccnc21.O=C(O)C(F)(F)F.O=C(O)C(F)(F)F.O=C(O)C(F)(F)F` | - | -10.09 |
| 29 | `Cn1ccnc1-c1cccc(NC(=O)NCCCO)c1` | -8.147 | 2.479 |
| 30 | `CC(OCC1CC1)C(=O)Nc1ncccc1I` (stereo unspecified) | 19.35 | 4.044 |
| 31 | `Cc1nn(C)cc1-c1cc(C(F)F)n2nc(CCC(=O)O)nc2n1` | 0.4745 | -1.087 |
| 32 | `CC(NCc1ccccc1CN1CCCC1=O)c1ccc(C#N)cc1` (stereo unspecified) | - | 3.63 |
| 33 | `CCN1CCOCC2(CCCN(c3nncs3)C2)C1` (stereo unspecified) | -31.49 | 5.194 |
| 34 | `CC(C)n1ccnc1C1CCCN(c2ccnc3ccccc23)C1` (stereo unspecified) | 5.674 | 3.765 |
| 35 | `CC(=O)C(C)CC(=O)N(Cc1cccc(C)c1)C(C)C` (stereo unspecified) | - | -37.55 |
| 36 | `COc1ccnc(NC(Cc2ccccc2)C(N)=O)n1` (stereo unspecified) | -10.74 | -9.24 |
| 37 | `[H][C@@]12OCCC[C@]1([H])N(C(=O)c1ccsc1)C[C@@H]2N1CCOCC1` | -31.21 | 7.372 |
| 38 | `Cc1nnc(N2CC[C@H](OCC3CC3)[C@@H](Cc3ccccc3)C2)s1.O=C(O)C(F)(F)F` | 73.55 | 29.25 |
| 39 | `Cc1ccc(Sc2ccc(N3CCCC(C(=O)O)C3)nn2)cc1` (stereo unspecified) | 17.39 | 2.532 |
| 40 | `CC(C)NC(=O)Nc1ccc(-c2nc3c([nH]2)CCNC3)cc1` | -1.26 | -2.66 |
| 41 | `O=C(O)C(F)(F)F.[H][C@@]12CCN(Cc3scnc3C)C[C@]1(C(=O)NC(C)C)CCO2` | -10.32 | -20.24 |
| 42 | `[H][C@@]12CN(Cc3ccc(C(F)(F)F)cc3)C[C@]1([H])OCC(=O)N2CC(N)=O` | -6.239 | -6.463 |
| 43 | `COc1ccc(CC(=O)N2CCC(c3nnc4n3CCC4)CC2)cc1F` | -6.734 | -19.24 |
| 44 | `CCn1ccnc1CN1CCC(CNC(=O)c2ccc(C)nc2)C1` (stereo unspecified) | 18.33 | 14.83 |
| 45 | `CS(=O)(=O)N1CCOCC2(CCN(Cc3ccoc3)CC2)C1.O=C(O)C(F)(F)F` | 0.4717 | 5.349 |
| 46 | `Cc1nn(C)c(C)c1CCC(=O)Nc1cccn(C)c1=O` | - | 2.024 |
| 47 | `CC1CCCCN1CCNC(=O)c1ccn(-c2ccc(F)cc2)n1` (stereo unspecified) | -18.11 | -13.47 |
| 48 | `CC(=O)c1cccc(NC(=O)CN2CCCC(C3OCCO3)C2)c1` (stereo unspecified) | -26.36 | -20.76 |
| 49 | `[H][C@]12CN(C(=O)OC)CCN1C[C@H](CO)[C@H]2c1ccccc1` | 9.303 | 3.526 |
| 50 | `CCn1cnnc1C1CCN(C(=O)c2cc3c(s2)CCC3)CC1` | 9.245 | 14.07 |
| 51 | `Cc1cccc(CN2CCCCC2c2n[nH]cc2-c2cc(C)no2)c1.Cl` (stereo unspecified) | 25.54 | 6.346 |
| 52 | `CN(Cc1ccc(Cl)c(F)c1)C(=O)CCc1ccncc1` | 30.55 | 4.441 |
| 53 | `COc1c(C2CCCN2c2ncnc3sccc23)c(C)nn1C` (stereo unspecified) | - | -9.963 |
| 54 | `N#Cc1ccc(S(=O)(=O)NC(=O)C2CC2)c(C(F)(F)F)c1` | -3.241 | 2.859 |
| 55 | `[H][C@@]12CC[C@H](Oc3ccccc3)[C@]1([H])CN(C(=O)COCC)C2` | -14.06 | -11.41 |
| 56 | `CC(C)N(C)C(=O)C1=NOC2(CCN(C(=O)c3ccc(Cl)cc3)C2)C1` (stereo unspecified) | 13.73 | -12.48 |

For reference, 4 entries once more:

Compound	Mtb growth Cornell	Mtb heat-shock
Cc1ncc(C(=O)N2CCC(N3C[C@@H](C)O[C@@H](C)C3)CC2)c(=O)[nH]1	-	-12.02
CN(Cc1ccc(Cl)c(F)c1)C(=O)CCc1ccncc1	30.55	4.441
CC(NCc1ccccc1CN1CCCC1=O)c1ccc(C#N)cc1 (stereo unspecified)	-	3.63
COc1c(C2CCCN2c2ncnc3sccc23)c(C)nn1C (stereo unspecified)	-	-9.963

The values are deposited in ChEMBL (CHEMBL3988442, “University of Dundee, Small-Polar-MMV Screening Library” (2021)).